Measured values taken from paper PMC5058510.
Results are given in words; binding and its absence hold for the method and conditions named. Some results given as binding are weak or reduced against the parent protein; the word gives no strength.

Columns and labels:
[1] = target: T1, biotinylated GW-Q6 peptide; experiment: pull-down; biotinylated GW-Q6 immobilised on streptavidin-conjugated beads (2 hrs, 4°C) in PC buffer (20 mM Hepes, pH 7.4, 0.05 M NaCl), no sarkosyl; mixed with recombinant OprI overnight at 4°C, washed three times; non-reducing SDS-PAGE/Coomassie blue staining; both purified
T1 sequence (peptide, biotin (position not stated)): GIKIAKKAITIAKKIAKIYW

[2] = target: T1, biotinylated GW-Q6 peptide; experiment: pull-down; biotinylated GW-Q6 immobilised on streptavidin-conjugated beads (2 hrs, 4°C) in sarkosyl solution (10 mM sodium phosphate, pH 7.4, 0.15 M NaCl, 0.075% sodium N-dodecanoylsarcosinate); mixed with recombinant OprI overnight at 4°C, washed three times; non-reducing SDS-PAGE/Coomassie blue staining; both purified

Substance: recombinant OprI (from UniProt P11221 20-83)
- binding [1]: binds weakly
- binding [2]: binds
